Results from article PMC7036753, “Lipidated Analogs of the LL-37-Derived Peptide Fragment KR12—Structural Analysis, Surface-Active Properties and Antimicrobial Activity” (International Journal of Molecular Sciences, 2020).
Values joined by “and” are separate entries in the source; they are usually repeats but may differ in a detail not shown here. Identical values can stand only once. Peptide text beside a SMILES is read from it. * marks the point of attachment. Myristoyl = CCCCCCCCCCCCCC(=O)*; Octanoyl = CCCCCCCC(=O)*; Bz = O=C(c1ccccc1)*

Key:
[1] = system: human red blood cells (hRBCs); assay: Hemolysis assay; assay type: cell-based; details: MHC (hRBCs) over GM of MIC against S. aureus
Experimental: Then the stock RBCs solution was added up to a final volume of 100 μL with a 4% concentration of erythrocytes (v/v). The control wells for 0 and 100% hemolysis were also prepared. They consisted of RBCs suspended in PBS and 1% of Triton-X 100, respectively.

[2] = system: human keratinocytes (HaCaT); assay type: cell-based; details: IC50 (HaCaT) over GM of MIC against S. aureus
Experimental: The cytotoxicity of test compounds (IC50) was evaluated for human keratinocytes (HaCaT, ATCC) using classic MTT assay on 96-well plates. In this assay, a colorimetric determination of the cell metabolic activity was carried out. Specifically, the color intensity reflects the number of live cells that can be measured spectrophotometrically. […] A day after plating 500 cells per well, a series of concentrations (0.5–500 μg/mL) of the test compounds were added. Dimethyl sulfoxide (DMSO) was used as a control in cells at a final concentration of 1.0% (v/v), which was related to the maximal concentration of the solvent compounds used in the experiment. After 24 h of incubation with test compounds, a medium containing 1 mg/mL of MTT was added up to a final concentration of 0.5 mg/mL and subsequently incubated at 37 °C for 4 h. Then, the medium was aspirated and the formazan product was solubilized with DMSO. The background absorbance at 630 nm was subtracted from that at 570 nm for each well (Epoch, BioTek Instruments, Winooski, VT, USA). Six replicates were conducted for each concentration. All experiments were repeated at least twice and the resulting IC50 values were calculated with a GraFit 7 software (v. 7.0, Erithacus, Berkley, CA, USA).

SMILES | Selectivity Index (SI) MHC/GM [1] | Selectivity Index (SI) IC50/GM [2]
CCCCCCCC(=O)N[C@@H](CCCCN)C(=O)N[C@@H](CCCNC(=N)N)C(=O)N[C@H](C(=O)N[C@H](C(=O)N[C@@H](CCC(N)=O)C(=O)N[C@@H](CCCNC(=N)N)C(=O)N[C@H](C(=O)N[C@@H](CCCCN)C(=O)N[C@@H](CC(=O)O)C(=O)N[C@@H](Cc1ccccc1)C(=O)N[C@@H](CC(C)C)C(=O)N[C@@H](CCCNC(=N)N)C(N)=O)[C@@H](C)CC)C(C)C)[C@@H](C)CC [IV, C8-KR12-NH2] (Octanoyl-KRIVQRIKDFLR-NH2) | ~28 and 27.83 | 1.41
CCCCCCCCCCCCCC(=O)N[C@@H](CCCCN)C(=O)N[C@@H](CCCNC(=N)N)C(=O)N[C@H](C(=O)N[C@H](C(=O)N[C@@H](CCC(N)=O)C(=O)N[C@@H](CCCNC(=N)N)C(=O)N[C@H](C(=O)N[C@@H](CCCCN)C(=O)N[C@@H](CC(=O)O)C(=O)N[C@@H](Cc1ccccc1)C(=O)N[C@@H](CC(C)C)C(=O)N[C@@H](CCCNC(=N)N)C(N)=O)[C@@H](C)CC)C(C)C)[C@@H](C)CC [VII, C14-KR12-NH2] (Myristoyl-KRIVQRIKDFLR-NH2) | 0.06 | 0.02
CC[C@H](C)[C@H](NC(=O)[C@H](CCCNC(=N)N)NC(=O)[C@H](CCC(N)=O)NC(=O)[C@@H](NC(=O)[C@@H](NC(=O)[C@H](CCCNC(=N)N)NC(=O)[C@H](CCCCN)NC(=O)c1ccccc1)[C@@H](C)CC)C(C)C)C(=O)N[C@@H](CCCCN)C(=O)N[C@@H](CC(=O)O)C(=O)N[C@@H](Cc1ccccc1)C(=O)N[C@@H](CC(C)C)C(=O)N[C@@H](CCCNC(=N)N)C(N)=O [VIII, Benzoic acid-KR12-NH2] (Bz-KRIVQRIKDFLR-NH2) | – | 2.20
